Laboratory results: PubChem BioAssay AID1224828 (NIAID, 2016)
Assay: 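Regulators linking TLR4 signalling to p65 nuclear translocation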 (primary screen). Cells: mouse RAW264.7 G9 macrophage reporter cells (GFP-p65, Tnf promoter-mCherry). Reagent: siRNA pool against mouse genes, 100 nM. Time to read-out: 2 days siRNA transfection, then 40 min LPS before fixation. Treatment: LPS (Salmonella minnesota R595) at 10 ng/ml. Measurement: 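Microscopy ratio of nuclear to perinuclear-ring GFP-p65 signal, scaled to the plate median; gene score is the average of two replicate robust z-scores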. Direction: p65 translocation robust z-score: higher = more nuclear NF-kappaB p65 after LPS than the plate median; nuclear/cytoplasmic p65 ratio: higher = more nuclear NF-kappaB p65. Call rule: 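Active if robust z is above 3.3 (negative regulators) or below -1.56, the Tlr4 control median (positive regulators); activity score 50 or more; control wells not called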. Meaning of the calls: active = hit (p65 shift raised or lowered); inactive = no clear change.
The deposit covers about 17,000 reagents; below is a part drawn at random. 762 of all reagents (4.5%) count as active. 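Active calls include both raised and lowered p65 entry, mostly lowered; wells with fewer than 50 cells lack a z-score.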 The raw values are shown without normalisation. Entries without a mark were called inactive.

| Gene | p65 translocation robust z-score | nuclear/cytoplasmic p65 ratio, rep 1 | nuclear/cytoplasmic p65 ratio, rep 2 | low cell count flag |
| --- | --- | --- | --- | --- |
| Tex19.1 (testis expressed gene 19.1) | – | 1.42 | 1.27 | fewer than 50 cells per well; well left out of scoring |
| Cry1 (cryptochrome circadian regulator 1) | 0.21 | 1.52 | 1.63 | enough cells to score |
| Or6c70 (olfactory receptor family 6 subfamily C member 70) | 1.02 | 1.51 | 1.39 | enough cells to score |
| Ints13 (integrator complex subunit 13) | 1.54 | 1.41 | 1.82 | enough cells to score |
| 2810021J22Rik (RIKEN cDNA 2810021J22 gene) | 0.39 | 1.42 | 1.54 | enough cells to score |
| Mpp4 | 0.07 | 1.91 | 1.5 | enough cells to score |
| Ets1 (Ets proto-oncogene 1, transcription factor) | -0.32 | 1.51 | 1.25 | enough cells to score |
| Zbtb46 (zinc finger and BTB domain containing 46) | 0.82 | 1.38 | 1.64 | enough cells to score |
| Trat1 (T cell receptor associated transmembrane adaptor 1) | -0.47 | 1.64 | 1.3 | enough cells to score |
| Myh8 (myosin, heavy polypeptide 8, skeletal muscle, perinatal) | -0.89 | 1.18 | 1.13 | enough cells to score |
| Ciao2a (cytosolic iron-sulfur assembly component 2A) | 0.46 | 1.36 | 1.59 | enough cells to score |
| Neurog2 (neurogenin 2) | -0.47 | 1.72 | 1.51 | enough cells to score |
| Ensa (endosulfine alpha) | -0.83 | 1.32 | 1.48 | enough cells to score |
| Slc2a8 | -0.11 | 1.55 | 1.46 | enough cells to score |
| Ramp2 (receptor (calcitonin) activity modifying protein 2) | 0.21 | 1.56 | 1.53 | enough cells to score |
| Npepps (aminopeptidase puromycin sensitive) | 0.77 | 1.71 | 1.41 | enough cells to score |
| Gdpd4 (glycerophosphodiester phosphodiesterase domain containing 4) | 2.04 | 1.44 | 1.49 | enough cells to score |
| Eipr1 (EARP complex and GARP complex interacting protein 1) | 0.35 | 1.42 | 1.49 | enough cells to score |
| Ms4a19 (membrane-spanning 4-domains, subfamily A, member 19) | 0.81 | 1.46 | 1.56 | enough cells to score |
| Mettl28 (methyltransferase like 28) | 0.5 | 1.43 | 1.57 | enough cells to score |
| Lman1l (lectin, mannose-binding 1 like) | -0.17 | 1.58 | 1.78 | enough cells to score |
| Or4c105 (olfactory receptor family 4 subfamily C member 105) | -1.46 | 1.52 | 1.29 | enough cells to score |

10 successive entries from above:
| Gene | p65 translocation robust z-score | nuclear/cytoplasmic p65 ratio, rep 1 | nuclear/cytoplasmic p65 ratio, rep 2 | low cell count flag |
| --- | --- | --- | --- | --- |
| 2810021J22Rik (RIKEN cDNA 2810021J22 gene) | 0.39 | 1.42 | 1.54 | enough cells to score |
| Mpp4 | 0.07 | 1.91 | 1.5 | enough cells to score |
| Ets1 (Ets proto-oncogene 1, transcription factor) | -0.32 | 1.51 | 1.25 | enough cells to score |
| Zbtb46 (zinc finger and BTB domain containing 46) | 0.82 | 1.38 | 1.64 | enough cells to score |
| Trat1 (T cell receptor associated transmembrane adaptor 1) | -0.47 | 1.64 | 1.3 | enough cells to score |
| Myh8 (myosin, heavy polypeptide 8, skeletal muscle, perinatal) | -0.89 | 1.18 | 1.13 | enough cells to score |
| Ciao2a (cytosolic iron-sulfur assembly component 2A) | 0.46 | 1.36 | 1.59 | enough cells to score |
| Neurog2 (neurogenin 2) | -0.47 | 1.72 | 1.51 | enough cells to score |
| Ensa (endosulfine alpha) | -0.83 | 1.32 | 1.48 | enough cells to score |
| Slc2a8 | -0.11 | 1.55 | 1.46 | enough cells to score |

Continued.
| Gene | p65 translocation robust z-score | nuclear/cytoplasmic p65 ratio, rep 1 | nuclear/cytoplasmic p65 ratio, rep 2 | low cell count flag |
| --- | --- | --- | --- | --- |
| Med26 (mediator complex subunit 26) | 0.75 | 1.6 | 1.41 | enough cells to score |
| Ffar3 (free fatty acid receptor 3) | -0.25 | 1.41 | 1.61 | enough cells to score |
| Mrps35 (mitochondrial ribosomal protein S35) | -1.14 | 1.66 | 1.37 | enough cells to score |
| Snca (synuclein, alpha) | 0.11 | 1.52 | 1.62 | enough cells to score |
| Vipr2 (vasoactive intestinal peptide receptor 2) | 1.7 | 1.98 | 1.61 | enough cells to score |
| Ddx46 (DEAD box helicase 46) | 0.24 | 1.55 | 1.63 | enough cells to score |
| Ier3 (immediate early response 3) | -1.44 | 1.22 | 1.21 | enough cells to score |
| Mpc2 | -1.26 | 1.25 | 1.29 | enough cells to score |
| Or51ah3 (olfactory receptor family 51 subfamily AH member 3) | 0.31 | 1.45 | 1.33 | enough cells to score |
| Veph1 (ventricular zone expressed PH domain-containing 1) | – | 1.37 | 1.28 | fewer than 50 cells per well; well left out of scoring |
| Sema3c | 0.16 | 1.58 | 1.57 | enough cells to score |
| Hsd3b7 | 1.71 | 1.92 | 1.54 | enough cells to score |
| Or13p3 (olfactory receptor family 13 subfamily P member 3) | 2.35 | 1.88 | 1.8 | enough cells to score |
| Ptp4a1 (protein tyrosine phosphatase 4a1) | 0.05 | 1.48 | 1.43 | enough cells to score |
| Tuft1 (tuftelin 1) | 2.47 | 1.65 | 1.56 | enough cells to score |
| Pip5k1c (phosphatidylinositol-4-phosphate 5-kinase, type 1 gamma) | 1.52 | 1.56 | 1.74 | enough cells to score |
| Ptbp2 (polypyrimidine tract binding protein 2) | – | 1.33 | 1.24 | fewer than 50 cells per well; well left out of scoring |
| Trarg1 (trafficking regulator of GLUT4 (SLC2A4) 1) | -0.54 | 1.31 | 1.5 | enough cells to score |
| Bdkrb1 (bradykinin receptor, beta 1) | – | 1.4 | 1.57 | fewer than 50 cells per well; well left out of scoring |
| Abcc9 (ATP-binding cassette, sub-family C member 9) | 0.67 | 1.72 | 1.71 | enough cells to score |
| Cntf (ciliary neurotrophic factor) | -1.9 (active) | 1.24 | 1.14 | enough cells to score |
| Cyp11b2 (cytochrome P450, family 11, subfamily b, polypeptide 2) | -0.25 | 1.43 | 1.36 | enough cells to score |
| Cmtm1 (CKLF-like MARVEL transmembrane domain containing 1) | 1.57 | 1.91 | 1.95 | enough cells to score |
| Col11a2 (collagen, type XI, alpha 2) | 0.08 | 1.5 | 1.37 | enough cells to score |
| Slc6a20a | 0.4 | 1.47 | 1.29 | enough cells to score |
| Or52u1 (olfactory receptor family 52 subfamily U member 1) | -1.23 | 1.27 | 1.13 | enough cells to score |
| Or52i2 (olfactory receptor family 52 subfamily J member 2) | – | 1.13 | 1.05 | fewer than 50 cells per well; well left out of scoring |
| Ephx2 (epoxide hydrolase 2, cytoplasmic) | -1.53 | 1.25 | 1.18 | enough cells to score |
| Rpia (ribose 5-phosphate isomerase A) | – | 1.54 | 1.32 | fewer than 50 cells per well; well left out of scoring |
| Or4a71 (olfactory receptor family 4 subfamily A member 71) | -0.28 | 1.56 | 1.3 | enough cells to score |
| B3gnt8 | -0.36 | 1.63 | 1.52 | enough cells to score |
| Btg1 (BTG anti-proliferation factor 1) | -0.14 | 1.61 | 1.58 | enough cells to score |
| S100a10 (S100 calcium binding protein A10 (calpactin)) | 0.64 | 1.58 | 1.63 | enough cells to score |
| Mxi1 (MAX interactor 1, dimerization protein) | -0.88 | 1.3 | 1.26 | enough cells to score |
| Kdm1b (lysine (K)-specific demethylase 1B) | -0.21 | 1.61 | 1.61 | enough cells to score |
| Ppp1ca (protein phosphatase 1 catalytic subunit alpha) | 0.08 | 1.56 | 1.37 | enough cells to score |
| Glb1l2 (galactosidase, beta 1-like 2) | 3.07 | 1.74 | 2.06 | enough cells to score |
